Measurements taken from patent publication US7029900.
The exact form of at least one protein or probe is not confirmed.

System: BtgZI restriction endonuclease (Bacillus thermoglucosidasius 36A)
Assay: enzyme reaction in vitro
Conditions: run-off sequencing of cleaved plasmid; NEBuffer 4, 37 C 1 h; purified native protein; only the site is given

Sequence | activity on this sequence
TTCTTTCTGCGCGGTCAACTTTGTACCAATCATACATCGCCTGAG (double strand) | active
CGATGAGAATGCGATGTTGGTGGCCAAAAGCAATTATCC (double strand) | active
